Experimental data: PMC9827817
Results are given in words; binding and its absence hold for the method and conditions named. In cells and extracts the contact can be indirect. These calls come from enrichment with a bait or labelling near it, and not all partners need be listed.

Sequences of proteins named here, by UniProt entry; tags and fusion partners are left off.
UniProt O96013: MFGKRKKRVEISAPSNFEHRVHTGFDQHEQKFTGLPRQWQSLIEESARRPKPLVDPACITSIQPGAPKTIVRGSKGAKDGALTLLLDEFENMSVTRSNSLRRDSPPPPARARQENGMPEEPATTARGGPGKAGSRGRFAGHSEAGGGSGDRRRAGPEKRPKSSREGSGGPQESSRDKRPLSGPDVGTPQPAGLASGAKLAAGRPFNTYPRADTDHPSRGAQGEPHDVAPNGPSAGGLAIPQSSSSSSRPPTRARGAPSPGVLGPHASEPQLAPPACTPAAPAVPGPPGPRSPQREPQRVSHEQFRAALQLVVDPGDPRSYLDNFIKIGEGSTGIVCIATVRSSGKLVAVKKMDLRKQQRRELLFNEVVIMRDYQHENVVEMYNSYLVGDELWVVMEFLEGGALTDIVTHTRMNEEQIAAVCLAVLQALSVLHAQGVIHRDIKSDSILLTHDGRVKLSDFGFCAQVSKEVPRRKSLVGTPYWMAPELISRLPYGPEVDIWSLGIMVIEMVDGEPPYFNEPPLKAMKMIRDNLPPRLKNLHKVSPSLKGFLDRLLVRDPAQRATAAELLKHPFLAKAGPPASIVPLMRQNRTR
UniProt Q9ULV4: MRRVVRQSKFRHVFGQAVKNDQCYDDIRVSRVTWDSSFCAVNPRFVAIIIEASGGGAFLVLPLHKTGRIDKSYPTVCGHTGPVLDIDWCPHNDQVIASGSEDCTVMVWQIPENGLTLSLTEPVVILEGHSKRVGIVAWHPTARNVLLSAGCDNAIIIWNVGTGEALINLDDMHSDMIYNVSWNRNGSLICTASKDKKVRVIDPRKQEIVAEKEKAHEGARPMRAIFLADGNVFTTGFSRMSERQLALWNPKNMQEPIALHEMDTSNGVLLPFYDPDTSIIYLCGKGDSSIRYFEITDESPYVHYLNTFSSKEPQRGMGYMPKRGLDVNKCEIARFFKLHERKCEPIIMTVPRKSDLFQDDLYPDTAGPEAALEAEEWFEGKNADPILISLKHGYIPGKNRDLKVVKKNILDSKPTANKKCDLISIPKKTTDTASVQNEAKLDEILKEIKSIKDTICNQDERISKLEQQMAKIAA

Target: Flag-tagged PAK4 (P21-activated kinase 4), overexpressed in SGC-7901 cells (UniProt O96013)
Test: affinity purification with mass spectrometry; Flag-tagged PAK4 overexpressed in SGC-7901 cells; lysate immunoprecipitated with anti-Flag antibody; immunoprecipitates analysed by mass spectrometry

binding: binds
Substance: CORO1C in gastric cancer cell lysate (from UniProt Q9ULV4 1-474)
